{
  "source": "patent US6432692",
  "molecular_target": "Hsp90",
  "assay": "co-immunoprecipitation of 35S labeled Hsp90 with T7-agarose, bands quantified with a phosphoimager",
  "note": "These are yes or no findings as the source states them, for the method shown. Binding seen in cells or lysates may run through a third protein. Binding calls can cover weak binding; strength is not graded here. Where a sequence is shown, tags or fusion partners need not be part of it.",
  "data": [
    {"binder": "T7 tagged full length ARA9 expressed in bacteria (pET17b-ARA9, PL799) (protein) MASMTGGQQMGMADIIARLREDGIQKRVIQEGRGELPDFQDGTKATFHYRTLHSDDEGTVLDDSRARGKPMELIIGKKFKLPVWETIVCTMREGEIAQFLCDIKHVVLYPLVAKSLRNIAVGKDPLEGQRHCCGVAQMREHSSLGHADLDALQQNPQPLIFHMEMLKVESPGTYQQDPWAMTDEEKAKAVPLIHQEGNRLYREGHVKEAAAKYYDAIACLKNLQMKEQPGSPEWIQLDQQITPLLLNYCQCKLVVEEYYEVLDHCSSILNKYDDNVKAYFKRGKAHAAVWNAQEAQADFAKVLELDPALAPVVSRELRALEARIRQKDEEDKARFRGIFSH", "values": [
      {"measurement": "binding", "value": "binds"}
    ]}
  ]
}
